Drawing on PMC10855946, this text covers binding for two substances.

Protein sequences, listed by entry. Tags and fused reporters are not part of them.
UniProt P70658: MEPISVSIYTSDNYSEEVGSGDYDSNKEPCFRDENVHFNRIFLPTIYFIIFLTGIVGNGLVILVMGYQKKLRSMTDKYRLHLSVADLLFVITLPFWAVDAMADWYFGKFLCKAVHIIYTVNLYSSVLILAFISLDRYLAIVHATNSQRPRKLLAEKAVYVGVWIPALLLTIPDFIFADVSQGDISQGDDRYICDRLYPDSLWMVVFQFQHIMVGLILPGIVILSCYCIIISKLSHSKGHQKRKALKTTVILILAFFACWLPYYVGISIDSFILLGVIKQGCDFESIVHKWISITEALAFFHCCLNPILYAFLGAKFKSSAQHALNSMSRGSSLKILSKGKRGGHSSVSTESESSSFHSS
UniProt P56485: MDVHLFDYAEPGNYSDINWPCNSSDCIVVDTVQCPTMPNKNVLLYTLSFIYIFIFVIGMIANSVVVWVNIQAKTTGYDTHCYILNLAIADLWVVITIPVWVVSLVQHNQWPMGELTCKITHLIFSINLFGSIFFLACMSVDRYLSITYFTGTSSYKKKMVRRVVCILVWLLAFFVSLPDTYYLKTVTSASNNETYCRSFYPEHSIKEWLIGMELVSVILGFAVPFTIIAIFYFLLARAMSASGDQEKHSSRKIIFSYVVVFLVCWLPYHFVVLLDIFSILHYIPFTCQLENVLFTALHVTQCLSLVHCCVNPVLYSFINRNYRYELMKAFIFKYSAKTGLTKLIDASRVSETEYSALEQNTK

The assay addresses T1, CXCL14-TMP-Cub-GAL4 bait (C-X-C motif chemokine ligand 14 anchored to the yeast membrane) (UniProt Q9WUQ5).
T1 sequence: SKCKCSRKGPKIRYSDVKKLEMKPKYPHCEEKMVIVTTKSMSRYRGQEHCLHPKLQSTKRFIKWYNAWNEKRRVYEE
In words: two-hybrid; MALAR-Y2H (membrane-anchored, split-ubiquitin Cub-GAL4/NubG); GoldY2H bait cells mated with Y187 prey cells; diploids on SD/Leu-Trp-Ade-His- plates with α-X-gal and 15 mM 3-AT, growth after 72 h; β-Gal assay of diploid cells.

Results are given in words; binding and its absence hold for the method and conditions named. Some binding calls cover weakened binding; strength is not graded here.

On to “OST1-CXCR4-NubG prey (mouse CXC motif receptor 4) (from UniProt P70658 1-359)”, for which the binding entry is given as “binds”.
Take “OST1-CXCR7-NubG prey (mouse CXC motif receptor 7) (from UniProt P56485 1-362)”: the binding entry is given as “binds”.
